At least one peptide structure holds a part that was inferred or is arguable (an end, a ring closure or a residue). Some entries repeat one wording, which the source may state once for all of them. Positions of bridges follow the written chain, without caps; N, C: chain ends. Residues, ends and D or L forms follow the SMILES beside them.
How the values were obtained:
[1] = system: amylin inhibition of insulin-stimulated glycogen synthesis in rat muscle cells; assay: Amylin antagonist reduction of glycogen synthesis inhibition in rat muscle (Example 3); format: cell-based; conditions: for Glycogen synthesis, mean value (amylin & antagonist) / Rltv Antg Effect (percentage by which relative insulin resistance is reduced from amylin alone) / Rltv Insulin Resist (amylin & antagonist): insulin 100 KU/ml
[2] = system: isolated rat soleus muscle; assay: Glycogen synthesis in isolated rat soleus muscle strips (14C-glucose incorporation into glycogen); format: cell-based; conditions: Example 2, synthetic subpeptides; data not shown
[3] = Tendency to form amyloid / insoluble aggregates; format: physicochemical
[4] = system: isolated rat islets of Langerhans; assay: Glucose-stimulated insulin secretion from isolated rat islets of Langerhans; format: cell-based; conditions: for Insulin production / Relative insulin secretion inhibition (percentage by which insulin production is reduced from control): glucose 10 mmol/L
Experimental: The following experiments illustrate the fact that subpeptides of amylin can act to reduce the amount of insulin produced by isolated islets of Langerhans in response to a standard glucose challenge. Similar results have been obtained using whole amylin. All experiments were performed by known methods used in experimental practice. See, e.g., Lacey P. E., and Kostianovsky M., Method for the Isolation of Intact Islets of Lanaerhans from the Rat Pancreas. Diabetes 1967; 16:35-39.
Briefly, rats were killed, and islets of Langerhans were isolated from their pancreases. Experiments were performed either with freshly isolated islets or after overnight incubation of islets (23 h) in standard culture medium and conditions at 37° C. Synthetic amylin peptide 27-37 or synthetic calcitonin gene related peptide (CGRP) was dissolved in a 1.0 mmol/L citric acid/sodium citrate buffer, pH 3.0, and the concentration of the amylin 27-37 was verified by quantitative amino acid analysis. See, e.g., Cooper G. J. S. et al., Proc Natl Acad Sci USA 1987; 84:8628-8632. […] Stimulation of islets was carried out at the standard stimulatory glucose concentration of 10 mmol/L.
Production of insulin is expressed as μU/islet/h. All experiments were performed with five replicates per point. The integrity of the islet response was assessed by comparing the responses after stimulation of different aliquots of islets by two and ten mmol/L glucose, respectively, and the strength of the inhibitory response was judged against that induced by 1 μg/ml (650 nmol/L) somatostatin. Somatostatin is a 14 amino acid peptide which is a known, potent inhibitor of the insulin secretory response of islet B-cells to glucose. Arimura A. Biomed res1981; 2:233-257. […] Petterson M., Ahren B., Bottcher G., Sundler F., Endocrinology 1986; 119:865-869.
The results are shown in TABLE 5 below and all results are expressed as standard error of the mean (s.e.m.). The significance of differences between the means of groups is assessed by the t-test. The result of stimulation by 10 mmol/L glucose is compared with the results of stimulation at 2 mmol/L glucose. In all other experimental conditions, the significance of the inhibitory effect is measured against the effect of 10 mmol/L glucose alone.

[5] = amylin 0.2 nmol/ml + antagonist 10,000 nmol/ml, Experiment #1
[6] = amylin 2.0 nmol/ml + antagonist 10,000 nmol/ml, Experiment #2

CC(C)C[C@H](NC(=O)[C@H](Cc1ccccc1)NC(=O)[C@H](CC(N)=O)NC(=O)[C@H](C)NC(=O)[C@H](CC(C)C)NC(=O)[C@H](CCCNC(=N)N)NC(=O)[C@H](CCC(N)=O)NC(=O)[C@@H](NC(=O)[C@H](C)NC(=O)[C@H](CO)NC(=O)[C@@H](NC(=O)[C@H](C)NC(=O)[C@@H](NC(=O)[C@H](CC(N)=O)NC(=O)[C@H](CO)NC(=O)[C@@H](N)CCCCN)[C@@H](C)O)[C@@H](C)O)[C@@H](C)O)C(=O)O [subpeptide [7]] (H-KSNTATSATQRLANFL-OH)
Glycogen synthesis, mean value (amylin & antagonist) [1, 5]: 2.22 µmol/h/g | Rltv Antg Effect (percentage by which relative insulin resistance is reduced from amylin alone) [1, 5]: 24% | Rltv Insulin Resist (amylin & antagonist) [1, 5]: 22% | Glycogen synthesis, mean value (amylin & antagonist) [1, 6]: 2.63 µmol/h/g | Rltv Antg Effect (percentage by which relative insulin resistance is reduced from amylin alone) [1, 6]: 38% | Rltv Insulin Resist (amylin & antagonist) [1, 6]: 20% | Effect on the insulin resistance produced by amylin alone (in words) ([1]; insulin 100 uU/mL, antagonist 10^-5 mol/L): partially ameliorating the insulin resistance | Activity in inhibiting basal and insulin-stimulated glycogen synthesis (in words) [2]: Activity was absent

CC[C@H](C)[C@H](NC(=O)[C@H](C)NC(=O)CNC(=O)[C@H](Cc1ccccc1)NC(=O)[C@H](CC(N)=O)NC(=O)[C@H](CC(N)=O)NC(=O)[C@H](CO)NC(=O)[C@H](CO)NC(=O)[C@@H](N)Cc1c[nH]cn1)C(=O)N[C@@H](CC(C)C)C(=O)O [subpeptide [2]] (H-HSSNNFGAIL-OH)
Tendency to form amyloid (in words) [3]: amyloidogenic

CC(C)C[C@H](NC(=O)[C@H](Cc1ccccc1)NC(=O)[C@H](CC(N)=O)NC(=O)[C@H](C)NC(=O)[C@H](CC(C)C)NC(=O)[C@H](CCCNC(=N)N)NC(=O)[C@H](CCC(N)=O)NC(=O)[C@@H](NC(=O)[C@H](C)NC(=O)[C@@H]1CSSC[C@H](NC(=O)[C@@H](N)CCCCN)C(=O)N[C@@H](CC(N)=O)C(=O)N[C@@H]([C@@H](C)O)C(=O)N[C@@H](C)C(=O)N[C@@H]([C@@H](C)O)C(=O)N1)[C@@H](C)O)C(=O)O [subpeptide [3]] (H-KCNTATCATQRLANFL-OH; disulfide 2-7)
Activity in inhibiting basal and insulin-stimulated glycogen synthesis (in words) [2]: significant activity was present

CC(C)C[C@H](NC(=O)[C@H](Cc1ccccc1)NC(=O)[C@H](CC(N)=O)NC(=O)[C@H](C)NC(=O)[C@H](CC(C)C)NC(=O)[C@H](CCCNC(=N)N)NC(=O)[C@H](CCC(N)=O)NC(=O)[C@@H](NC(=O)[C@H](C)NC(=O)[C@H](CS)NC(=O)[C@@H](NC(=O)[C@H](C)NC(=O)[C@@H](NC(=O)[C@H](CC(N)=O)NC(=O)[C@H](CS)NC(=O)[C@@H](N)CCCCN)[C@@H](C)O)[C@@H](C)O)[C@@H](C)O)C(=O)O [subpeptide [4]] (H-KCNTATCATQRLANFL-OH)
Activity in inhibiting basal and insulin-stimulated glycogen synthesis (in words) [2]: significant activity was present

CC(C)C[C@H](N)C(=O)N[C@@H](CO)C(=O)N[C@@H](CO)C(=O)N[C@H](C(=O)N[C@@H](CC(N)=O)C(=O)N[C@H](C(=O)NCC(=O)N[C@@H](CO)C(=O)N[C@@H](CC(N)=O)C(=O)N[C@H](C(=O)N[C@@H](Cc1ccc(O)cc1)C(=O)O)[C@@H](C)O)C(C)C)[C@@H](C)O [subpeptide [6]] (H-LSSTNVGSNTY-OH)
Inhibition of glucose stimulated insulin secretion (in words) ([4]; isolated rat islet): potent inhibitor of glucose stimulated insulin secretion | Insulin production ([4]; substance 10 nmol/L): 45 μU/islet/hr | Relative insulin secretion inhibition (percentage by which insulin production is reduced from control) ([4]; substance 10 nmol/L): 44% | Insulin production ([4]; substance 100 nmol/L): 48 μU/islet/hr | Relative insulin secretion inhibition (percentage by which insulin production is reduced from control) ([4]; substance 100 nmol/L): 40% | Insulin production ([4]; substance 1000 nmol/L): 65 μU/islet/hr | Relative insulin secretion inhibition (percentage by which insulin production is reduced from control) ([4]; substance 1000 nmol/L): 19% | Activity in inhibiting basal and insulin-stimulated glycogen synthesis (in words) [2]: Activity was absent

From patent US5260275A, “Hypoglycemics” (Amylin Pharmaceuticals, Inc., priority 1990, dated 1993)
